Experiment in all cases: co-IP; mitochondrial extracts from PC3 cells immunoprecipitated with antibodies to survivin, ClpP or ClpX, or non-binding IgG; western blotting
A general note: A western blot detects proteins with antibodies after separation by electrophoresis.

By UniProt entry, the sequences of proteins in these tests, tags left out. Where a name states a change or a piece, a line headed by the entry shows the natural chain unless it says otherwise. Residues count along the entry.
UniProt Q16740: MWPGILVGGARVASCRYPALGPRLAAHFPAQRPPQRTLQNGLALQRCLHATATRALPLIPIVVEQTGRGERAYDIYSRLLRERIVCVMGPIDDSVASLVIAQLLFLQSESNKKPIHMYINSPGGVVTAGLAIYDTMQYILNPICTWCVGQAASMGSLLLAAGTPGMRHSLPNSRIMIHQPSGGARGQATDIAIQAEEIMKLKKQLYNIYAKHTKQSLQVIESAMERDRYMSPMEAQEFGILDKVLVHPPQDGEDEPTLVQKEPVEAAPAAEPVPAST
UniProt O76031, residues 57-633: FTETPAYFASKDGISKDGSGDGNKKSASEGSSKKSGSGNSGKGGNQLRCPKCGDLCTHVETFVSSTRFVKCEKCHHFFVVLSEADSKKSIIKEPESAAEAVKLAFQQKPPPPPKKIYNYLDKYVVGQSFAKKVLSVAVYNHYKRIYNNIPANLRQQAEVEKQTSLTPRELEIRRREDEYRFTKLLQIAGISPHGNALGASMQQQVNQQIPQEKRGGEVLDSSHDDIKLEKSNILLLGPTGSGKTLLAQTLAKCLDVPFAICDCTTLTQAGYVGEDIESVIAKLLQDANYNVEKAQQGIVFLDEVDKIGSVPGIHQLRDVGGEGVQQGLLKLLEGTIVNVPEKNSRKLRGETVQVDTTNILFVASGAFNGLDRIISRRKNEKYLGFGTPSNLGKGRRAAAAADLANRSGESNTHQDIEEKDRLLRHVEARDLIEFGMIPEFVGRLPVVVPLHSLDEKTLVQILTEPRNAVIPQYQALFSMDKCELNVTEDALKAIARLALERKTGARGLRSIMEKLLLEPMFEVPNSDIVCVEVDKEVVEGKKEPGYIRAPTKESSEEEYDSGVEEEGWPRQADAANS

The target in test [1] is ClpP, AAA+ peptidase subunit of the ClpXP complex (human (endogenous in PC3)) (UniProt Q16740).
For test [2], the target named is survivin (human (endogenous in PC3)) (UniProt O15392).
Test [3] deals with ClpX, unfoldase subunit of the ClpXP complex (human (endogenous in PC3)) (UniProt O76031).

No constants are given. Whether binding was seen depends on the method and setting. Binding seen in cells or lysates may run through a third protein. Some results given as binding are weak or reduced against the parent protein; the word gives no strength.

For survivin (from UniProt O15392 1-142), the binding entry in test [1] was “binds”.

For “ClpP, AAA+ peptidase subunit of the ClpXP complex (from UniProt Q16740 57-277) (enzyme)”, the binding result in test [2] is on record as “binds”.

B1: TNFR-associated molecule-1 (TRAP-1) (protein, UniProt Q12931 60-704)
chain: STQTAEDKEEPLHSIISSTESVQGSTSKHEFQAETKKLLDIVARSLYSEKEVFIRELISNASDALEKLRHKLVSDGQALPEMEIHLQTNAEKGTITIQDTGIGMTQEELVSNLGTIARSGSKAFLDALQNQAEASSKIIGQFGVGFYSAFMVADRVEVYSRSAAPGSLGYQWLSDGSGVFEIAEASGVRTGTKIIIHLKSDCKEFSSEARVRDVVTKYSNFVSFPLYLNGRRMNTLQAIWMMDPKDVREWQHEEFYRYVAQAHDKPRYTLHYKTDAPLNIRSIFYVPDMKPSMFDVSRELGSSVALYSRKVLIQTKATDILPKWLRFIRGVVDSEDIPLNLSRELLQESALIRKLRDVLQQRLIKFFIDQSKKDAEKYAKFFEDYGLFMREGIVTATEQEVKEDIAKLLRYESSALPSGQLTSLSEYASRMRAGTRNIYYLCAPNRHLAEHSPYYEAMKKKDTEVLFCFEQFDELTLLHLREFDKKKLISVETDIVVDHYKEEKFEDRSPAAECLSEKETEELMAWMRNVLGSRVTNVKVTLRLDTHPAMVTVLEMGAARHFLRMQQLAKTQEERAQLLQPTLEINPRHALIKKLNQLRASEPGLAQLLVDQIYENAMIAAGLVDDPRAMVGRLNELLVKALERH
On to B1, for which the binding entry in test [2] and in test [1] was “binds” each time.

B2: succinate dehydrogenase B (SDHB), oxidative phosphorylation Complex II subunit (protein, UniProt P21912 29-280)
chain: AQTAAATAPRIKKFAIYRWDPDKAGDKPHMQTYEVDLNKCGPMVLDALIKIKNEVDSTLTFRRSCREGICGSCAMNINGGNTLACTRRIDTNLNKVSKIYPLPHMYVIKDLVPDLSNFYAQYKSIEPYLKKKDESQEGKQQYLQSIEEREKLDGLYECILCACCSTSCPSYWWNGDKYLGPAVLMQAYRWMIDSRDDFTEERLAKLQDPFSLYRCHTIMNCTRTCPKGLNPGKAIAEIKKMMATYKEKKASV
Turning to B2, the binding result in test [3] and in test [1] was “binds” throughout.
